Results from PubChem BioAssay AID2685 (National Center for Advancing Translational Sciences (NCATS), 2010).
The other results are listed elsewhere or left out. Further columns of the screen follow, without active or inactive calls. The list favours compounds with an active or inconclusive main result. Potencies come from curve fits of mixed quality, noted in brackets.

Assay: qHTS Assay for Lipid Storage Modulators in Drosophila S3 Cells;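 on cell number change: cells counted by Cell Tracker Red CMTPX staining in the red channel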
Conditions: BODIPY lipid droplet fluorescence, 18-24 h; for cell number change: measured here: cell count max response, cells fed with added oleic acid
How it was run: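 Drosophila S3 cells loaded with oleic acid (400 uM, as added) and compounds at several concentrations; lipid droplets imaged by 488-nm laser-scanning cytometry, 500–530 nm intensity and object ratio to cell channel. Percent activity normalized to 20 uM Triacsin C.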

[1] = measured here: lipid fluorescence (Fed channel) AC50, cells fed with added oleic acid
[2] = measured here: cell number channel AC50, cells fed with added oleic acid

SMILES	AC50 [1]	cell number change	AC50 [2]
COc1ccc(CCC(C(O)C(F)(F)F)S(=O)c2ccccc2)cc1 (stereo not drawn)	0.731 µM [falling, single point]		
CSc1nnc(-c2ccc(S(=O)(=O)N3CCCC3)cc2)n1C	18.4 µM [rising, single point]	7.74%	
Cc1ccc(-c2csc3ncnc(-n4nnc5ccccc54)c23)cc1C	0.259 µM [falling, full curve, poor fit]	-2.84%	
COC(=O)c1cccc(NC(=O)c2ccc3c(c2)C(=O)N(Cc2cccnc2)C3=O)c1C	29.1 µM [rising, single point]	11.9%	
CC(=O)Nc1ccc(NC(=O)CCCCCn2nnc3ccccc3c2=O)cc1	3.66 µM [rising, full curve]	78%	6.51 µM [rising, partial curve]
COc1ccc(/C=C/C(=O)OCC(=O)Nc2cc3oc4ccccc4c3cc2OC)cc1	3.16 µM [falling, single point]	6.53%	3.55 µM [falling, single point]
c1ccc2c(NCCc3c[nH]c4ccccc34)c3ccccc3nc2c1	29.1 µM [falling, single point]	-55.9%	29.1 µM [falling, single point]
Cc1cc(C)[n+](-c2ccc(Oc3ccccc3)c(S(=O)(=O)[O-])c2)[nH]1		-24%	
O=C(Nc1nn[nH]n1)c1cccc([N+](=O)[O-])c1	0.164 µM [falling, full curve, poor fit]	-28.6%	
O=C(COc1ccc(Cl)cc1)Nc1ccccc1N1CCOCC1	0.092 µM [rising, full curve, poor fit]	4.14%	
CC1CCC(n2c(=S)[nH]c3ccccc3c2=O)CC1 (stereo not drawn)		-31.3%	23.1 µM [falling, single point]
CCOc1ccc(NC(=O)Cc2ccccc2)cc1	16.4 µM [rising, partial curve, poor fit]	18.8%	
CCOC(=O)C1CCCN(S(=O)(=O)c2ccc3c4c(cccc24)C(=O)N3CC)C1 (stereo not drawn)	0.58 µM [falling, single point]	-15.4%	
C/C(=N\NC(=O)c1ccc(Cl)c(Cl)c1)c1cccc(NC(=O)C(C)C)c1	29.1 µM [rising, single point]	160%	29.1 µM [rising, single point]
CCN(CC)c1ccc(C=Nc2ccc(N(C)C)cc2)c(O)c1	29.1 µM [falling, single point]	42.4%	29.1 µM [rising, single point]
O=C(CCSc1nnc(-c2ccco2)o1)Nc1ccc(Cl)cc1	0.116 µM [falling, full curve, poor fit]	-7.51%	0.206 µM [falling, full curve, poor fit]
O=C(/C=C/c1ccccc1Cl)NCCc1ccc(F)cc1	4.61 µM [rising, partial curve]	32%	3.26 µM [rising, partial curve]
O=C(NC(=S)Nc1cccc2c(O)cccc12)c1ccco1		-33.8%	16.4 µM [falling, single point]
CC(=O)c1ccc(-n2c(=O)[nH]c(=O)c3c(N)c(C(=O)c4ccc(Cl)cc4)sc32)cc1		-5.84%	

SMILES	AC50 [1]	cell number change	AC50 [2]
O=C1/C(=C/c2ccccc2)SC(=S)N1CCCC(=O)N1CCCCC1CCO (stereo not drawn)	29.1 µM [falling, single point]		
CC(=O)Oc1ccc2c(c1)Oc1cc(OC(C)=O)ccc1C21OC(=O)c2ccccc21	0.184 µM [falling, full curve]	-95.3%	0.58 µM [falling, full curve]
CCCc1cc(=O)n2[nH]cc(-c3ccc(Cl)cc3)c2n1		-39.9%	16.4 µM [falling, single point]
Cc1ccc(N2CC(C(=O)Nc3ccccc3N3CCCC3)CC2=O)cc1 (stereo not drawn)	2.59 µM [rising, partial curve, poor fit]	9.99%	
Cc1cc(-c2ccc(/C=N/n3cnnc3)o2)ccc1Cl	29.1 µM [falling, single point]	-8.68%	
CCOc1cc(/C=C2\C(=N)N3N=CSC3=NC2=O)ccc1OS(=O)(=O)c1ccccc1	11.6 µM [falling, single point]		
Cc1cccc(C)c1NC(=O)COC(=O)c1cc(=O)[nH]c2ccccc12	32.6 µM [rising, partial curve, poor fit]	30.6%	
Cc1ccc(NC(=O)Nc2cc(S(=O)(=O)N(C)C)ccc2C)cc1	0.651 µM [rising, single point]	19.9%	
COc1ccc(Cc2nnc(NC(=O)c3ccccc3)s2)cc1OC	0.58 µM [falling, single point]	-17.9%	0.731 µM [falling, partial curve]
COc1ccc(C2C(C(=O)N3CCN(c4ccccn4)CC3)CCC(=O)N2c2ccc(OC)cc2)cc1 (stereo not drawn)	3.66 µM [rising, partial curve]	76.9%	7.31 µM [rising, partial curve]
COc1ccc(S(=O)(=O)N(C)CC(=O)N2CCN(C)CC2)cc1Cl	29.1 µM [falling, single point]	2.48%	
CCCn1c(C2CCCN2c2nc(-c3ccc(C)cc3)cs2)nc2ccccc21 (stereo not drawn)		-7.49%	
CC(C)Sc1nnc(NC(=O)c2ccco2)s1		20.3%	
COc1ccc2oc(=O)c(C(=O)N3CCN(C(=O)c4ccccc4)CC3)cc2c1		9.21%	
O=C(CC(=O)Nc1ccccc1F)Nc1ccccc1F	0.0366 µM [rising, full curve, poor fit]	17%	
Cc1cccc(-c2noc(CN(C)S(=O)(=O)c3cc(Cl)ccc3Cl)n2)c1	0.82 µM [rising, full curve]		1.03 µM [rising, full curve]
CC(C)C(=O)Nc1ccc(C(=O)NN2C(=O)c3ccccc3C2=O)cc1	0.092 µM [falling, partial curve, poor fit]	14.6%	
CC(=O)NC1(c2nnnn2CCOC(=O)Nc2ccc(Cl)cc2)CCCCC1	2.31 µM [rising, single point]	9.7%	
CCc1ccc(OCC(=O)NN2Cc3ccccc3C2=N)cc1	0.517 µM [falling, partial curve]		0.58 µM [falling, single point]

Copied from above, two compounds:
SMILES	AC50 [1]	cell number change	AC50 [2]
CCCn1c(C2CCCN2c2nc(-c3ccc(C)cc3)cs2)nc2ccccc21 (stereo not drawn)		-7.49%	
CC(C)Sc1nnc(NC(=O)c2ccco2)s1		20.3%	

A draw from above in order of count of non-hydrogen atoms, low to high.
SMILES	AC50 [1]	cell number change	AC50 [2]
Cc1ccc(N2CC(C(=O)Nc3ccccc3N3CCCC3)CC2=O)cc1 (stereo not drawn)	2.59 µM [rising, partial curve, poor fit]	9.99%	
O=C1/C(=C/c2ccccc2)SC(=S)N1CCCC(=O)N1CCCCC1CCO (stereo not drawn)	29.1 µM [falling, single point]		
CC(=O)Oc1ccc2c(c1)Oc1cc(OC(C)=O)ccc1C21OC(=O)c2ccccc21	0.184 µM [falling, full curve]	-95.3%	0.58 µM [falling, full curve]

Continuation:

SMILES	AC50 [1]	cell number change	AC50 [2]
CC(C)COc1nc2ccccc2c(=O)n1OCC(=O)O	32.6 µM [rising, single point]	20.2%	
O=C(NCc1ccc(Cl)cc1)C1CCCCN1S(=O)(=O)c1ccccc1 (stereo not drawn)	6.51 µM [rising, single point]	30.4%	
COc1ccc(N2CCN(C(CNC(C)=O)c3ccco3)CC2)cc1 (stereo not drawn)		-12%	
O=C(Nc1ccncc1)Nc1ccccc1Cl		42.8%	14.6 µM [rising, partial curve, poor fit]
CC(=O)C(Cc1cnc(Cl)s1)(Cc1cnc(Cl)s1)C(C)=O	4.11 µM [falling, partial curve, poor fit]	19.9%	3.66 µM [falling, partial curve, poor fit]
CCOc1ccc(NC(=O)CC(=O)Nc2ccc(OCC)cc2)cc1	23.1 µM [rising, partial curve, poor fit]	33%	29.1 µM [rising, partial curve]
CC(=O)c1ccc(N2CCN(C(=O)c3cccs3)C(C)C2)c(F)c1 (stereo not drawn)	2.31 µM [falling, single point]	-44.7%	29.1 µM [falling, single point]
COc1ccc(CC(=O)Oc2cc(C)ccc2C)cc1	29.1 µM [rising, single point]	29.1%	
O=C(CN1C(=O)NC2NC(=O)NC21)N/N=C/c1ccccc1O (stereo not drawn)	0.00461 µM [falling, full curve, poor fit]	-13.2%	
N#C/C(=C\C=C\c1ccccc1[N+](=O)[O-])c1nc(-c2ccc3c(c2)OCO3)cs1	0.13 µM [rising, full curve, poor fit]		
O=[N+]([O-])c1ccc(C2=NN(c3ccccc3)C(c3ccco3)C2)cc1 (stereo not drawn)	0.326 µM [falling, full curve]	-95.4%	1.64 µM [falling, full curve]
CCn1c2ccccc2c2cc([N+](=O)[O-])ccc21	29.1 µM [rising, single point]	56.3%	20.6 µM [rising, single point]
CCCCC(=O)Nc1ccc(Br)cn1	0.731 µM [falling, full curve, poor fit]	-34.4%	0.92 µM [falling, full curve]
CC1(C)Nc2ccccc2N(CCC(=O)N2CCOCC2)C1=O	0.0058 µM [falling, full curve, poor fit]	-0.698%	
CC(C)(C)C(=O)CSc1ncccn1		22%	
COc1cc(/C=N/NC(=O)c2cccnc2)ccc1OCC(=O)Nc1ccc(C)cc1	0.411 µM [rising, full curve]	16.7%	3.66 µM [rising, single point]
CC1(/[N+]([O-])=C\c2ccccc2F)CCCCC1=O (stereo not drawn)	0.00461 µM [falling, full curve, poor fit]	-22.2%	
COc1ccc2nc(SCC(=O)Nc3ccccc3C)[nH]c2c1	0.259 µM [falling, partial curve, poor fit]	-7.05%	
